Measured values reported in publication doi:10.1101/2021.03.29.435803.

Chains of the proteins cited; added tags and fusions are not shown.
UniProt Q60843: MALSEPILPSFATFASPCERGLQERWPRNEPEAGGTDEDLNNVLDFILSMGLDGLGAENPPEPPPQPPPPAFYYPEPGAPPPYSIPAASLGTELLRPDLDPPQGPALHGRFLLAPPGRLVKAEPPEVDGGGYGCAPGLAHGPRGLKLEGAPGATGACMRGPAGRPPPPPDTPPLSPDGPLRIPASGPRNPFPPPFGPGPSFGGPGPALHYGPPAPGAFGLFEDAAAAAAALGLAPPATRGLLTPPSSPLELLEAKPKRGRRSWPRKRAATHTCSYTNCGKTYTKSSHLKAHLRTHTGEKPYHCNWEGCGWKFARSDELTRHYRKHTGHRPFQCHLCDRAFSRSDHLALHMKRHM
UniProt Q8VBV4: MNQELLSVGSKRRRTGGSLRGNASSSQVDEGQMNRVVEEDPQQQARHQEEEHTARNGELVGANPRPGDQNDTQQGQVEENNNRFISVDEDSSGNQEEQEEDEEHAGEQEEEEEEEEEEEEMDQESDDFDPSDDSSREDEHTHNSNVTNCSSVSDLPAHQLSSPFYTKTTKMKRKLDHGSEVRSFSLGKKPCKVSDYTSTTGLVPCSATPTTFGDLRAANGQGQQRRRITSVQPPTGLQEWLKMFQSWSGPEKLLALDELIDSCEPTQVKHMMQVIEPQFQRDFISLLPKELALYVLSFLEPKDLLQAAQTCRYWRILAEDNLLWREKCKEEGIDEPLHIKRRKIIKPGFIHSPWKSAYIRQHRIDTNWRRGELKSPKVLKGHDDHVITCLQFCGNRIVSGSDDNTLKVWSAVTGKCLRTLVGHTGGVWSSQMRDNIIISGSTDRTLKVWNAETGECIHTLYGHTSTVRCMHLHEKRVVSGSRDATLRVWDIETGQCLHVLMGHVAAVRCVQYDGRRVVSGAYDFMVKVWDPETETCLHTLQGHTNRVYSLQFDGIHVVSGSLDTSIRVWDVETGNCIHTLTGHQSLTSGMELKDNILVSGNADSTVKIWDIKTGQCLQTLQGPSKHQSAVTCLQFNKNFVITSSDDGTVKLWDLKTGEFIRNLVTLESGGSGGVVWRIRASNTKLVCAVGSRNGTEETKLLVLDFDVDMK
UniProt Q9WTX6: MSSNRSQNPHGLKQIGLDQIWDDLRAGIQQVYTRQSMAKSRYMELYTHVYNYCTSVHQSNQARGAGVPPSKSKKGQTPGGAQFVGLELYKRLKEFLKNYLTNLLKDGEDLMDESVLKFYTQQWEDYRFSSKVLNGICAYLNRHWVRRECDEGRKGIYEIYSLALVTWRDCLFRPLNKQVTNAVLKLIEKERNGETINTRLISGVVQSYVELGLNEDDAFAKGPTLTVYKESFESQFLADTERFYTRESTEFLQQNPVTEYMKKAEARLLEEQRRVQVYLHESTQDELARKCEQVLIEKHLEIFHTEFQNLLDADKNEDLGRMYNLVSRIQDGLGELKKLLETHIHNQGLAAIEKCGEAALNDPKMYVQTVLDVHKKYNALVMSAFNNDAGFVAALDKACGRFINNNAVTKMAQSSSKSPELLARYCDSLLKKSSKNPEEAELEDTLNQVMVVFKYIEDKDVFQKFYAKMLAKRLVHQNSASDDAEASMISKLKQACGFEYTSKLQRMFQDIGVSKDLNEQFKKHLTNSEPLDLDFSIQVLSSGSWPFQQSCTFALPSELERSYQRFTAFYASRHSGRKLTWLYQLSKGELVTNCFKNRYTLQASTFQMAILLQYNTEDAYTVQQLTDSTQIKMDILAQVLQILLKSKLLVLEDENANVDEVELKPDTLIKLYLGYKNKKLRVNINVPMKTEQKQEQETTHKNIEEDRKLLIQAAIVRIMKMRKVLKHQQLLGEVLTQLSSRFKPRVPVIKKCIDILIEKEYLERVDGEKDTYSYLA

Target: 3xFLAG-KLF2 wildtype (UniProt Q60843)
Assay: affinity purification with mass spectrometry

Substance	binding
FBW7 (endogenous, mESCs) (from UniProt Q8VBV4 1-710)	binds
CUL1 (endogenous, mESCs) (from UniProt Q9WTX6 1-776)	binds

These are yes or no findings as the source states them, for the method shown. In cells and extracts the contact can be indirect. These calls come from enrichment with a bait or labelling near it, and not all partners need be listed.
